No constants are given. Whether binding was seen depends on the method and setting. In cells and extracts the contact can be indirect. Some results given as binding are weak or reduced against the parent protein; the word gives no strength.

The chains behind the UniProt entries cited, without tags or fusion partners.
UniProt P09429: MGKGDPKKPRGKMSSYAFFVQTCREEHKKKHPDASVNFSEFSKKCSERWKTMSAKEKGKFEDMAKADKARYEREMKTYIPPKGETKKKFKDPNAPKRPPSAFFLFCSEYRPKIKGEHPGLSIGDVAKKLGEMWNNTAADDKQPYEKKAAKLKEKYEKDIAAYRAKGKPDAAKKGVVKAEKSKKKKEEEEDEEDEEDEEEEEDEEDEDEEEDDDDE

Here are results for 1 substance from article PMC10598926.

The target of assay [1] is T1, HBHP peptide (HMGB1 binding heptamer peptide).
T1 sequence (peptide, biotin on N-terminus): HMSKPVQ
The assay is described as follows: pull-down; biotinylated HBHP or HBHP-scr peptide in Eto-CM of A549 cells, precipitated with Neutravidin Agarose beads; eluates blotted for HMGB1 and Hsp70; only the target purified.

The target in assay [2] is T2, HBHP-scr peptide (scrambled HBHP).
T2 sequence (peptide, biotin on N-terminus): PMQSKHV
The description is as above.

As for “HMGB1 (high mobility group protein B1) of A549 cells (endogenous) (from UniProt P09429 1-215)”, the results for the binding entry in assay [1] and in assay [2] were “binds” and “no binding”, respectively.
